Measured values taken from PMC3778836.

Amino acid sequences for entries named in this document (tags omitted).
UniProt Q13535: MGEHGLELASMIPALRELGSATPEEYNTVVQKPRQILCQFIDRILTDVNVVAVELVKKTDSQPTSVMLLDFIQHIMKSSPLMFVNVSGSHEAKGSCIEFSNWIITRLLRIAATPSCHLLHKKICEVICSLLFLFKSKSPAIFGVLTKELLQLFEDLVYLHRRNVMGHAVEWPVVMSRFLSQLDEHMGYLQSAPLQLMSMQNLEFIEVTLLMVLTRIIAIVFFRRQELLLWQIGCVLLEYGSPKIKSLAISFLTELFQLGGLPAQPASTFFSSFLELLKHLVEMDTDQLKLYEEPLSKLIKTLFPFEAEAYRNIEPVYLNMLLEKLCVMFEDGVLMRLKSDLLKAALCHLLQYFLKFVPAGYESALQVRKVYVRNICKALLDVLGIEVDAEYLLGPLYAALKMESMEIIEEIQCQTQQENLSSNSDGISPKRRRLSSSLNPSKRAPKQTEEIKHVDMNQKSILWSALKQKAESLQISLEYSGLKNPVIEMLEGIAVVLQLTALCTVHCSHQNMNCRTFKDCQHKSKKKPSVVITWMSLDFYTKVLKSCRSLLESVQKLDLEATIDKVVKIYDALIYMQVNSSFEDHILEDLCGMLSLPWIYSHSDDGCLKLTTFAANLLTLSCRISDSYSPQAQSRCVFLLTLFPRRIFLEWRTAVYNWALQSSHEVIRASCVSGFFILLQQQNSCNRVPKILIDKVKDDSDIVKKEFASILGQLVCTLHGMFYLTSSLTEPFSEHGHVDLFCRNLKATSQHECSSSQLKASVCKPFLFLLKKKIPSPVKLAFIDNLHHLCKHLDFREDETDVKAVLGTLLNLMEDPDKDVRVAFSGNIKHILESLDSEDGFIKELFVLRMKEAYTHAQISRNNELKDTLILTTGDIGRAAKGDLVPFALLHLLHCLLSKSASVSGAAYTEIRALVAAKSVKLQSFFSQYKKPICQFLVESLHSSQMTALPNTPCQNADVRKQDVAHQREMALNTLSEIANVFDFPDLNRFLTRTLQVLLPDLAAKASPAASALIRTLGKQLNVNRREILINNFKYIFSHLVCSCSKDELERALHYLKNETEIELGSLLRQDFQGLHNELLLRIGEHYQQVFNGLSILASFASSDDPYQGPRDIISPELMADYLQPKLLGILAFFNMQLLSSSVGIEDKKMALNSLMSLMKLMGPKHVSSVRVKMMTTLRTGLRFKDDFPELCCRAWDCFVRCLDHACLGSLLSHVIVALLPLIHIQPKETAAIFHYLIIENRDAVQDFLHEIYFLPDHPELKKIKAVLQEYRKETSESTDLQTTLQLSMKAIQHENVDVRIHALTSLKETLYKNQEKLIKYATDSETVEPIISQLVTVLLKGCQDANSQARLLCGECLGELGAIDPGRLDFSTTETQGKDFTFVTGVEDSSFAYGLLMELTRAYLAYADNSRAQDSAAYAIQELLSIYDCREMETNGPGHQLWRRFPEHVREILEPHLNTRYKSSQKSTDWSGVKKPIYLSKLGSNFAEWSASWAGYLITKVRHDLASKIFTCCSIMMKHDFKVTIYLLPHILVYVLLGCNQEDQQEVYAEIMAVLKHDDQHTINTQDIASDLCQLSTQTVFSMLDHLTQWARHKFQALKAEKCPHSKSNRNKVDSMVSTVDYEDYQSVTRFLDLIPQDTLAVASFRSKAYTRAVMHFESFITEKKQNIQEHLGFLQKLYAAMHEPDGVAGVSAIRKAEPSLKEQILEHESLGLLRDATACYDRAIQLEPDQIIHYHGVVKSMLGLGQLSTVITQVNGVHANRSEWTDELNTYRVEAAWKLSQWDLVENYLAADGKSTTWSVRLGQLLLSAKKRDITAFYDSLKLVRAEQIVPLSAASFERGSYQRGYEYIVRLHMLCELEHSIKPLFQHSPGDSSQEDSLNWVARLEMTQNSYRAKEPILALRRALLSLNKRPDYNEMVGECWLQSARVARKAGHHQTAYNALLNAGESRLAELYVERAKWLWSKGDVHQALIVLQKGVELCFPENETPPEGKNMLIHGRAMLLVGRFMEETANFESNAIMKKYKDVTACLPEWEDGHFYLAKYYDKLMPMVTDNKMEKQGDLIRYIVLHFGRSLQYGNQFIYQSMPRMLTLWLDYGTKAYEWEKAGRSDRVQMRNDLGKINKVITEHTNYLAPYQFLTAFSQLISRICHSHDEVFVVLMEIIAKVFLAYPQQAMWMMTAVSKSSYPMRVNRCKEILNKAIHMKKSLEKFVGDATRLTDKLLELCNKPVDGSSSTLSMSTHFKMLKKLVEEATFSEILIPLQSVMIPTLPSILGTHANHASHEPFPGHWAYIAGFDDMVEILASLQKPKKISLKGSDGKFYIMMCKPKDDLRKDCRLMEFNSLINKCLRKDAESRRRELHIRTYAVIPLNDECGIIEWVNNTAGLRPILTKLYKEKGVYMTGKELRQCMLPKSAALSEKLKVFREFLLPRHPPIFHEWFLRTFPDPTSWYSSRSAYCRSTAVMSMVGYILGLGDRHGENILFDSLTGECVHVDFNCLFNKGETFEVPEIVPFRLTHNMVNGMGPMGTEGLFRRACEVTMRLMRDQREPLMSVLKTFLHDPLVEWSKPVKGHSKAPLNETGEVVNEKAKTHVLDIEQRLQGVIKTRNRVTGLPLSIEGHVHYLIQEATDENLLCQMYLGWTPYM

Tests used:
Test in all cases: affinity purification with mass spectrometry; FLAG-HA-tagged bait stably expressed in HeLa S3; sequential anti-FLAG (M2 agarose, FLAG peptide elution) and anti-HA (12CA5) immunoprecipitation from nuclear extract; washes in 100 mM KCl, 20 mM Tris-HCl pH 8.0, 5 mM MgCl2, 10% glycerol, 0.1% Tween-20; 4-20% gradient gel, gel sections by LC-MS
[1] = molecular target: T1, FLAG-HA epitope-tagged HELQ (human) (UniProt Q8TDG4)
T1 sequence: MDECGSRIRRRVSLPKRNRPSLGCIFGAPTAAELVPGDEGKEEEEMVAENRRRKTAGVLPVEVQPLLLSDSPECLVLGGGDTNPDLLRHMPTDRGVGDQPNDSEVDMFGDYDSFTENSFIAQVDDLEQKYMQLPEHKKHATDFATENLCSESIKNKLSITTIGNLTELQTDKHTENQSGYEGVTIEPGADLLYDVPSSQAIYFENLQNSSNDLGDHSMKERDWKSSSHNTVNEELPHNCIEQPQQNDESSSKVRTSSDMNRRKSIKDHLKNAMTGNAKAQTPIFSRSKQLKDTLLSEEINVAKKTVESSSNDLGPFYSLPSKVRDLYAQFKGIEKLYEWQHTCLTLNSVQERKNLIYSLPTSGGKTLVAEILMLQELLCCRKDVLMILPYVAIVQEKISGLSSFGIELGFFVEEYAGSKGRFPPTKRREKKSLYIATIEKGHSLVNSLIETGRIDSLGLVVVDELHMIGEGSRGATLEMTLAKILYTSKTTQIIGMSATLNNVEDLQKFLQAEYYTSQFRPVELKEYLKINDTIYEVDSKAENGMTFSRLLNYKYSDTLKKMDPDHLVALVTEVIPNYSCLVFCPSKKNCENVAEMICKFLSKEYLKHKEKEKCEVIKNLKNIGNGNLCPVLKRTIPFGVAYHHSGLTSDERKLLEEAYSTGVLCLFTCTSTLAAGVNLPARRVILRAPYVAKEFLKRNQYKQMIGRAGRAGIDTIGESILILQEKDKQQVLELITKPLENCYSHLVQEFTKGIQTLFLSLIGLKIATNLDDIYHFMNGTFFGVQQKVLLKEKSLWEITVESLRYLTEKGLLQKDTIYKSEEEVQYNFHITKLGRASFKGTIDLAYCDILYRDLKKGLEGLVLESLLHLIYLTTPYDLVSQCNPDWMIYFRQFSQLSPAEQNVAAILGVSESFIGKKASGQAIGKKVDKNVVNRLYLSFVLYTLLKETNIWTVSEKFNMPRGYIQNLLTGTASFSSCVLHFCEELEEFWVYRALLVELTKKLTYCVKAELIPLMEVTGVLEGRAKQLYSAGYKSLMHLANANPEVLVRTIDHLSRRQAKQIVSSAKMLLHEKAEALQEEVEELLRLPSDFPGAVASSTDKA

[2] = molecular target: T2, FLAG-HA epitope-tagged XRCC2 (UniProt O43543)
T2 sequence: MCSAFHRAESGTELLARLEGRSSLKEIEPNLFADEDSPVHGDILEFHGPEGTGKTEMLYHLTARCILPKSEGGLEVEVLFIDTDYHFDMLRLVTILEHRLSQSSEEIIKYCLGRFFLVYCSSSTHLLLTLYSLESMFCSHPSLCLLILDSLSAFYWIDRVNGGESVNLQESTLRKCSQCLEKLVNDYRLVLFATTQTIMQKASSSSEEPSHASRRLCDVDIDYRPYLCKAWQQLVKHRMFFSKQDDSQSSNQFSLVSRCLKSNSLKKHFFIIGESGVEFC

Flag-HA-tagged POLN = molecular target: T3, Flag-HA-tagged POLN (UniProt Q7Z5Q5)
T3 sequence: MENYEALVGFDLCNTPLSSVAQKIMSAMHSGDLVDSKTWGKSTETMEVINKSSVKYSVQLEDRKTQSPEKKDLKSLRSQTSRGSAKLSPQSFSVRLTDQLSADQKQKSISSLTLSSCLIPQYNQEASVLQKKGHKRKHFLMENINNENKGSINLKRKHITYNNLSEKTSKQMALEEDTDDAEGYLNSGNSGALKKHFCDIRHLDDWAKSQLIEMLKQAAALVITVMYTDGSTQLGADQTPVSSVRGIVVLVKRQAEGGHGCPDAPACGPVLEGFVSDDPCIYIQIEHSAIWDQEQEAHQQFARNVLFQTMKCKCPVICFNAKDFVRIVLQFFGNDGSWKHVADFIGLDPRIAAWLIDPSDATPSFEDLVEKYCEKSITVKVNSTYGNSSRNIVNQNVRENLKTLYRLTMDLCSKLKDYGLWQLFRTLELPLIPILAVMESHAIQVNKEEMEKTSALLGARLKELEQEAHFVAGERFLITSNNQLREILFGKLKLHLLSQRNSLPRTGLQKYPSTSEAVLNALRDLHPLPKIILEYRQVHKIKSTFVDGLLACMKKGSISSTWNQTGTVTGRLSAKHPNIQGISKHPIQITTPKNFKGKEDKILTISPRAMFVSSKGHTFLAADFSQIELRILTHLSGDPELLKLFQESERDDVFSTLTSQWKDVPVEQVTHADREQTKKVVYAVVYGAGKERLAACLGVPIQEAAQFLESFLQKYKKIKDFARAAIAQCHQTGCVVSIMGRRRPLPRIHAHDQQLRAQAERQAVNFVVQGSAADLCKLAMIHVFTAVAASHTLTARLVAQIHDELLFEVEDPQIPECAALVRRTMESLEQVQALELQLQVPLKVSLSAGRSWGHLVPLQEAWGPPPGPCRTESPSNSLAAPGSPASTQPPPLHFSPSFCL

binding [1]: binds | binding [2]: no binding | binding (Flag-HA-tagged POLN): no binding
Substance: ATR (endogenous, HeLa S3) (from UniProt Q13535 1-2644) (enzyme)

Results are given in words; binding and its absence hold for the method and conditions named. In cells and extracts the contact can be indirect. Here binding means that the protein was enriched with, or labelled near, the bait; the list need not be complete. For part of these data: No binding means not detected with the bait. Tags and fused reporters may be left off the sequences shown.
